Measured values as given in patent US12357606B2, “Compositions and methods for treating defects in avascular cartilaginous tissue by directly administering one or more metabolites of simvastatin” (University of Cincinnati, priority 2017, dated 2025).
At least one structure is not confirmed: it was looked up by name or label, or the drawing left a doubt.

Key:
Assay type in all cases: cell-based
[1] = system: BMP-2 mRNA expression in rat NP cells; assay: BMP-2 mRNA expression in rat NP cells cultured in alginate beads (RT-qPCR); settings: 3 μM SV
From the text: Data are normalized with GAPDH and are expressed as ratio to vehicle (DMSO).
Findings from the investigation on SV stimulating endogenous BMP-2 expression in the treated NP cells, which in turn increases chondrogenic phenotype expression (aggrecan and type II collagen mRNA expression as well as sGAG content), were consistent with the above observations, validating that the small molecule is as efficacious in promoting chondrogenesis as to osteogenesis. […] SV has been prescribed widely for the treatment of hypercholesterolaemia and hypertriglyceridaemia. In humans, it undergoes rapid metabolism to form four major oxidative, NADPH-dependent metabolites, 3′-hydroxy SV (hSV), 6′-exomethylene SV (eSV), 3′,5′-dihydrodiol SV (dSV), and SVA (FIG. 5). […] This raised the question as to whether SVA is dominant in the entire scheme of BMP-2 upregulation. To test whether the levels of induced-BMP-2 by both SV and SVA, respectively, would be any different, the present investigators used the in vitro model system developed in the prior study to conduct the test. Rat NP cells harvested from tail discs were cultured initially in monolayer and then in alginate beads (Zhang H. et al. Spine, 2008; 33(16), the entire disclosure of which is incorporated herein by reference). Cells were treated with DMSO (vehicle), SV or SVA at 1 or 3 μM. Cells were then collected at pre-determined time points and with RNA extracted. Gene expression was analyzed by RT-qPCR. […] The BMP-2 level induced in the SVA group was 5-6 times higher than that in the SV one (FIG. 1A).
The classic mechanism understood for cholesterol lowering by statins is that statins act by competitively inhibiting HMG-CoA reductase, the first committed enzyme of the mevalonate (MVA) pathway. This competition reduces the rate by which HMG-CoA reductase is able to produce MVA, the next molecule in the cascade for the synthesis of prenylation enzyme substrates FPP and GGPP that eventually help produce cholesterol. As indicated previous studies by the inventors (Zhang H. N., Lin C. Y. Spine. 2008; 33(16), fully incorporated herein by reference), when SV was present, BMP-2 mRNA expression of NP cells always responded in a time and dose-dependent manner.

human NP cells = assay: mRNA expression in human NP cells harvested from patients with DDD exposed to SV
human AF cells = assay: mRNA expression in human annulus fibrosus (AF) cells harvested from patients with DDD exposed to SV

## CCC(C)(C)C(=O)O[C@H]1C[C@@H](C)C=C2C=C[C@H](C)[C@H](CC[C@@H]3C[C@@H](O)CC(=O)O3)[C@H]21 [SV, Simvastatin]
[1]; FPP
  stimulation of BMP-2 mRNA expression: dependence on FPP: independent
[1]; GGPP supplemented
  stimulation of BMP-2 mRNA expression when GGPP was supplemented: reversion was also achieved
[1]; cells pretreated with MVA
  stimulation of BMP-2 mRNA expression after pretreatment with MVA: completely reversed
[1]; presence of cholesterol
  stimulation of BMP-2 mRNA expression: dependence on cholesterol: independent of the presence of cholesterol
Human NP cells
  BMP-2 mRNA expression: up-regulated
  ratio of type II to type I collagen (differentiation index): significantly increased
Human NP cells; 0.3 to 3 μM
  mRNA expression of aggrecan: not affected
  mRNA expression of type II collagen: not affected
Human NP cells; dose dependent
  type I collagen mRNA expression: suppressed
Human AF cells
  BMP-2 mRNA expression: up-regulated
  mRNA expression of aggrecan: did not change
  mRNA expression of collagen type I: did not change
  mRNA expression of collagen type II: did not change
